The list shows a part of the results. These are further read-outs of the screen, such as a control signal, another cell line or another target. No call is given for them. Compounds called inactive in the main read-out are mostly missing here. Potencies come from curve fits of mixed quality, noted in brackets.
Experiment: qHTS Assay for Lipid Storage Modulators in Drosophila S3 Cells;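 on cell number change: cells counted by Cell Tracker Red CMTPX staining in the red channel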
Conditions: BODIPY lipid droplet fluorescence, 18-24 h; for cell number change: measured here: cell count max response, cells fed with added oleic acid
Procedure, shortened: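 Laser-scanning cytometry quantifies lipid droplet accumulation (500–530 nm total intensity; droplet/cell object ratio) in oleic acid-fed (400 uM added) Drosophila S3 cells treated with a concentration series. 20 uM Triacsin C defined 100% inhibition.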

[1] = measured here: lipid fluorescence (Fed channel) AC50, cells fed with added oleic acid
[2] = measured here: cell number channel AC50, cells fed with added oleic acid

SMILES	cell number change [%]	AC50 [1]	AC50 [2]
O=C(NCCN1CCOCC1)c1cc2n(n1)C(C(F)(F)F)CC(c1ccc(F)cc1)N2 (stereo unspecified)	1.79	16.4 µM [rising, single point]	–
COc1ccc2[nH]c(=O)c(CN(C(=O)NC3CCCCC3)C3CCCCC3)cc2c1	39.5	–	13 µM [rising, partial curve]
CSCCC(NC(=O)c1ccccc1Cl)C(=O)Nc1ccncc1 (stereo unspecified)	-50	0.58 µM [rising, single point]	20.6 µM [falling, single point]
O=c1c2ccc([N+](=O)[O-])cc2ncn1CCOc1cccc(Br)c1	45.6	–	29.1 µM [rising, single point]
O=C(CN1CCCCC1)Nc1cccc(Br)c1	–	0.82 µM [falling, full curve, poor fit]	–
CCc1n[nH]c(=S)n1/N=C/c1cccc2ccccc12	-9.34	–	–
CCC(=O)NC(NC(=S)Nc1ccccc1Br)C(Cl)(Cl)Cl (stereo unspecified)	10.8	0.651 µM [falling, full curve, poor fit]	–
C=CCn1c(-c2csc(-c3ccc(OC)c(OC)c3)n2)n[nH]c1=S	-34.3	2.59 µM [falling, full curve]	–
CCCC(C(=O)NC1CCCC1)N(C(=O)Cn1nnc(-c2ccc(C)o2)n1)c1cccc(O)c1 (stereo unspecified)	13.3	20.6 µM [rising, single point]	–
CCN(CC)C(=O)CC(c1ccccc1)c1ccco1 (stereo unspecified)	-1.81	–	–
NC(=O)CSc1nnc(-c2ccoc2)o1	5.99	29.1 µM [falling, single point]	–
CCCc1nnc(NC(=O)CCC(=O)NCCc2ccc(Cl)cc2)s1	8.26	7.31 µM [rising, partial curve]	–
CSc1ccccc1OCc1cc(C(=O)N2CCN3CCCC3C2)no1 (stereo unspecified)	-17.9	–	–
Cc1cc2oc(=O)cc(CN(C)Cc3cccc(F)c3)c2cc1C	19.4	–	–
O=C(CSc1ccccc1)NCC(c1ccco1)N1CCCCC1 (stereo unspecified)	-16.3	18.4 µM [rising, single point]	–
CCOC(=O)c1c(NC(=O)c2ccccc2C)sc2c1CC(C)(C)OC2	–	29.1 µM [rising, single point]	–
Cc1ccc(C)c(NC(=O)NCCN2CCCCC2)c1	-19.8	0.411 µM [falling, partial curve, poor fit]	–
CCCCN(C(=O)c1cc(-c2ccc(F)cc2)nc2ccccc12)c1c(N)n(CCCC)c(=O)[nH]c1=O	-48.9	2.31 µM [falling, partial curve, poor fit]	9.2 µM [falling, partial curve]
CCOC(=O)c1c(C)[nH]c(C)c1C(=O)CSc1nc2ccccc2c(=O)n1-c1ccc(Cl)cc1	6.74	29.1 µM [rising, single point]	–
Cc1nc(Nc2ccccc2)sc1C(=O)c1ccc(F)cc1	-53.1	20.6 µM [falling, partial curve]	16.4 µM [falling, partial curve]

2 successive entries from above, quoted:
SMILES	cell number change [%]	AC50 [1]	AC50 [2]
NC(=O)CSc1nnc(-c2ccoc2)o1	5.99	29.1 µM [falling, single point]	–
CCCc1nnc(NC(=O)CCC(=O)NCCc2ccc(Cl)cc2)s1	8.26	7.31 µM [rising, partial curve]	–

Later entries.

SMILES	cell number change [%]	AC50 [1]	AC50 [2]
COc1cc2[nH]c(=S)n(Cc3ccc(F)cc3)c(=O)c2cc1OC	30.2	16.4 µM [rising, partial curve]	18.4 µM [rising, single point]
Cn1ncc(N2CCN(S(=O)(=O)c3ccc(Br)cc3)CC2)c(Cl)c1=O	2.37	1.16 µM [falling, full curve]	–
CC(=O)N[C@@H](Cc1c[nH]c2ccccc12)C(=O)OCC(=O)NCc1ccc2c(c1)OCO2	-0.122	0.517 µM [rising, full curve, poor fit]	–
COc1cc(CC(=O)Nc2ccccc2N2CCOCC2)cc(OC)c1OC	-2.84	0.58 µM [rising, single point]	–
COc1ccc(-c2ccc(C#N)c(OC(=O)c3c(Cl)cccc3Cl)n2)cc1	-11.5	18.4 µM [rising, single point]	–
CCOc1ccc(Cn2c(=O)oc3ccc(C)cc32)cc1OC	65.1	–	20.6 µM [rising, single point]
O=C(NC(=S)NCc1ccccc1)c1ccccc1	–	4.11 µM [rising, single point]	3.66 µM [rising, single point]
CS(=O)(=O)Cc1cccc(C(=O)NC2CCSc3ccccc32)c1 (stereo unspecified)	3.78	6.51 µM [rising, partial curve, poor fit]	–
N#C/C(=C\c1c(N2CCOCC2)nc2ccccn2c1=O)S(=O)(=O)c1ccccc1	25.4	–	–
Cc1c(N=C2C=CC(=O)c3ccccc32)c(=O)n(-c2ccccc2)n1C	-60.2	20.6 µM [falling, single point]	14.6 µM [falling, partial curve]
NC(=O)c1nc[nH]c1C(=O)Nc1cccc(C(F)(F)F)c1	5.17	–	–
CCCCNC(=O)CN1C(=O)NC2NC(=O)NC21 (stereo unspecified)	-47.6	1.16 µM [falling, full curve]	1.03 µM [falling, full curve, poor fit]
CCc1c(O)c(/C(C)=N\O)c(=O)n(-c2ccccc2)c1-c1ccccc1	32	29.1 µM [rising, single point]	29.1 µM [rising, single point]
O=C1NC(=S)S/C1=C\c1ccc(SCc2ccco2)o1	–	4.11 µM [falling, full curve, poor fit]	–
O=C(O)c1cc(S(=O)(=O)NC(CO)C(O)c2ccc([N+](=O)[O-])cc2)ccc1Br (stereo unspecified)	-15.2	–	–
COc1ccc(-c2nc(N)ncc2-c2ccc(OC)c(OC)c2)c(O)c1	30.5	–	32.6 µM [rising, single point]
CCOC(=O)c1c(NC(=O)COc2ncnc3ccccc23)sc(C(C)=O)c1C	13.4	2.06 µM [rising, partial curve]	–
CCCCn1c(N)c(N(CCC(C)C)C(=O)c2ccc3ccccc3c2)c(=O)[nH]c1=O	-16.6	–	–
Cc1cc(NC(=O)c2ccco2)sc1C	23.4	29.1 µM [rising, single point]	–
CC1CN(CCS(=O)(=O)c2cc(Cl)ccc2Cl)CC(C)O1 (stereo unspecified)	12.2	–	–

SMILES	cell number change [%]	AC50 [1]	AC50 [2]
O=C(NNC1CC(=O)N(c2ccccc2)C1=O)c1ccc(COc2ccccc2Cl)o1 (stereo unspecified)	-16.7	29.1 µM [rising, single point]	–
CCCCN1C(=O)C(=O)N(CC(=O)N2CCN(c3ccccc3)CC2)C1=O	-28.5	–	0.0103 µM [falling, full curve, poor fit]
COc1ccccc1CNC(=O)C(Cc1c[nH]c2ccccc12)NC(=O)OCc1ccccc1 (stereo unspecified)	6.96	–	–
COc1cccc(Cn2c(Oc3cccc(C)c3)nc3c2c(=O)n(C)c(=O)n3C)c1	-18.3	0.731 µM [rising, partial curve]	–
CC(C)(C)n1cnc2cc(NS(=O)(=O)c3ccc(Br)cc3)ccc21	78.9	2.59 µM [rising, full curve]	2.59 µM [rising, full curve]
COc1ccccc1C(=O)Nc1nnc(S(=O)(=O)N2CCN(c3ccc(F)cc3)CC2)s1	-10.1	18.4 µM [rising, partial curve]	–
CS(=O)(=O)N1CCN(c2ccccc2F)CC1	–	11.6 µM [falling, partial curve]	0.731 µM [falling, partial curve, poor fit]
CCOc1cc(/C=N/NC(N)=O)cc(Br)c1OCC(=O)Nc1ccccc1C	47.2	5.17 µM [rising, full curve]	10.3 µM [rising, single point]
Cc1ccc(-c2cc(-c3ccc(Cl)cc3)c(C#N)c(N)n2)o1	-33.9	–	18.4 µM [falling, single point]
CCOC(=O)N1CCN(CCC(=O)Nc2ccc(OC)cc2)CC1	-8.86	0.411 µM [falling, partial curve, poor fit]	–
COc1ccc(NS(=O)(=O)c2cccc(C(=O)NNC(=O)c3cncc(Br)c3)c2)cc1	31	–	32.6 µM [rising, single point]
CC(=O)Oc1ccc(NC(=O)Cc2ccccc2)c(C(=O)O)c1	-30.1	7.94 µM [falling, partial curve]	2.24 µM [falling, full curve, poor fit]
CCOc1ccc(N(Cc2cc3ccc(C)cc3[nH]c2=O)C(=O)COC)cc1	-29.3	0.731 µM [falling, single point]	–
CC(C)(C)c1ccc(C(=O)NCC(=O)OCC(=O)c2ccc3c(c2)-c2ccccc2C3)cc1	-10.1	0.92 µM [falling, full curve, poor fit]	–
Cc1cc(Br)c(NC(=O)CCNC(=O)OCc2ccccc2)cc1C	-18.6	3.66 µM [falling, full curve, poor fit]	–
CC(=O)c1cccc(NC(=O)c2oc(C)nc2C)c1	-28.2	29.1 µM [falling, single point]	–
NNC(=O)C(Cc1cnc[nH]1)NC(=O)OCc1ccccc1 (stereo unspecified)	19.7	29.1 µM [rising, single point]	–
COC(=O)c1ccc2c(=O)n(CCCCCC(=O)NCc3ccccn3)c(=O)[nH]c2c1	136	0.116 µM [rising, full curve]	29.1 µM [rising, single point]
CCn1c(O)c(N=NC(=O)C2C(=O)NCC2c2ccccc2)c2ccccc21 (stereo unspecified)	7.82	0.58 µM [rising, full curve, poor fit]	–

Filtered by structure, the entries above containing fluorine (8)
SMILES	cell number change [%]	AC50 [1]	AC50 [2]
O=C(NCCN1CCOCC1)c1cc2n(n1)C(C(F)(F)F)CC(c1ccc(F)cc1)N2 (stereo unspecified)	1.79	16.4 µM [rising, single point]	–
Cc1cc2oc(=O)cc(CN(C)Cc3cccc(F)c3)c2cc1C	19.4	–	–
CCCCN(C(=O)c1cc(-c2ccc(F)cc2)nc2ccccc12)c1c(N)n(CCCC)c(=O)[nH]c1=O	-48.9	2.31 µM [falling, partial curve, poor fit]	9.2 µM [falling, partial curve]
Cc1nc(Nc2ccccc2)sc1C(=O)c1ccc(F)cc1	-53.1	20.6 µM [falling, partial curve]	16.4 µM [falling, partial curve]
COc1cc2[nH]c(=S)n(Cc3ccc(F)cc3)c(=O)c2cc1OC	30.2	16.4 µM [rising, partial curve]	18.4 µM [rising, single point]
NC(=O)c1nc[nH]c1C(=O)Nc1cccc(C(F)(F)F)c1	5.17	–	–
COc1ccccc1C(=O)Nc1nnc(S(=O)(=O)N2CCN(c3ccc(F)cc3)CC2)s1	-10.1	18.4 µM [rising, partial curve]	–
CS(=O)(=O)N1CCN(c2ccccc2F)CC1	–	11.6 µM [falling, partial curve]	0.731 µM [falling, partial curve, poor fit]

Reference: PubChem BioAssay AID2685 (National Center for Advancing Translational Sciences (NCATS), 2010)
